Test results from article PMC9453702, “Structure-function analysis of enterovirus protease 2A in complex with its essential host factor SETD3” (Nature Communications, 2022).
Results are given in words; binding and its absence hold for the method and conditions named. Binding calls can cover weak binding; strength is not graded here. Where a sequence is shown, tags or fusion partners need not be part of it.

Biological target: coxsackievirus B3 protease 2A with C-terminal His6-tag (for biolayer interferometry) (coxsackievirus B3 (Nancy strain))
Experiment: BLI; Octet RED384; His-tagged 2A loaded on Ni-NTA biosensors at 20 µg/ml, SETD3 variants in solution at several concentrations; 20 mM Tris/HCl pH 8.0, 150 mM NaCl, 5% glycerol, 1 mM DTT; global fit with Rmax unlinked; both purified

B1: human SETD3 Q257A + V266D + Y288P (recombinant, tag cleaved) (enzyme, UniProt Q86TU7 1-594)
chain: MGKKSRVKTQKSGTGATATVSPKEILNLTSELLQKCSSPAPGPGKEWEEYVQIRTLVEKIRKKQKGLSVTFDGKREDYFPDLMKWASENGASVEGFEMVNFKEEGFGLRATRDIKAEELFLWVPRKLLMTVESAKNSVLGPLYSQDRILQAMGNIALAFHLLCERASPNSFWQPYIQTLPSEYDTPLYFEEDEVRYLQSTQAIHDVFSQYKNTARQYAYFYKVIQTHPHANKLPLKDSFTYEDYRWAVSSVMTRQNAIPTEDGSRDTLALIPLWDMCNHTNGLITTGPNLEDDRCECVALQDFRAGEQIYIFYGTRSNAEFVIHSGFFFDNNSHDRVKIKLGVSKSDRLYAMKAEVLARAGIPTSSVFALHFTEPPISAQLLAFLRVFCMTEEELKEHLLGDSAIDRIFTLGNSEFPVSWDNEVKLWTFLEDRASLLLKTYKTTIEEDKSVLKNHDLSVRAKMAIKLRLGEKEILEKAVKSAAVNREYYRQQMEEKAPLPKYEESNLGLLESSVGDSRLPLVLRNLEEEAGVQDALNIREAISKAKATENGLVNGENSIPNGTRSENESLNQESKRAVEDAKGSSSDSTAGVKE
In the case of B1, the binding is reported as “binds weakly”.
